In this test the target is wsFGFR2c, wild-type soluble ectodomain of FGFR2IIIc (human) (UniProt P21802). Briefly: ITC; Auto-iTC200; 3 ul aliquots of 150 uM msFGFR2c into 200 ul of 20 uM wsFGFR2c, in the absence of FGF-2; 25 mM HEPES, 600 mM NaCl, 5% glycerol, pH 7.5; both purified.

Amino acid sequences for entries named in this document (tags omitted). A change or cut given only in a name is not applied to a line headed by its entry. Chains listed by the source or under a name are the forms on record and can include a tag or linker. Residues count along the entry.
wsFGFR2c, wild-type soluble ectodomain of FGFR2IIIc (P21802, residues 147-366): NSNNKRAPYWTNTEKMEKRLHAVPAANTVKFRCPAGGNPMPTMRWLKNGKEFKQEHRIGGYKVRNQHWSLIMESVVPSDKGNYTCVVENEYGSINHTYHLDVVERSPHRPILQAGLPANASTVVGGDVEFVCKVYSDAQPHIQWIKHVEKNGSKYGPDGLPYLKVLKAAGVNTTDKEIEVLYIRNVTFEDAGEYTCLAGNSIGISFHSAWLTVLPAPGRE
msFGFR2c, Ser252Trp mutant soluble ectodomain of FGFR2IIIc (P21802-1, form named): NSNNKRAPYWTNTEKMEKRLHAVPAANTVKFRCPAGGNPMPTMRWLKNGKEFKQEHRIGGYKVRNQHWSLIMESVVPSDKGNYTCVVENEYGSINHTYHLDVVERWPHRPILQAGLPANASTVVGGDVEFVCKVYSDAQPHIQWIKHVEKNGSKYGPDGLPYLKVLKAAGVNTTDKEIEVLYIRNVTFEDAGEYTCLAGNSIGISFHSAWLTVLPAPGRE

These are yes or no findings as the source states them, for the method shown. Some entries that bind do so weakly or less than the wild type.

“msFGFR2c, Ser252Trp mutant soluble ectodomain of FGFR2IIIc (from UniProt P21802-1 147-366) (domain or fragment)”: the binding result is “binds weakly”.

The values above are taken from article PMC5356568.
